In PubChem BioAssay AID192 (DTP/NCI, 2004):
The list is a part of this screen's results and no random one: it is rich in T/C values a quarter to a half above the control, in often repeated tests (any T/C) and in doses without a T/C. Other doses and runs of a compound stand elsewhere. T/C: endpoint of the treated group in % of that of the vehicle group. Some doses have a count of surviving animals in place of a T/C: the source files T/C as zero there, which appears to mark a toxic dose or a test without result, not a measured value. Some survivor counts are full or nearly so, which does not show that the dose was tolerated: survival well below the control is almost never listed, so the zero probably covers shortened survival too. Counts of survivors are from the toxicity check (mostly the fifth day) where no day follows; animals may have died later. Schedules are NCI's codes, read here as Q, the interval in days (D) or hours (H), X, the number of doses. Some entries hold several experiments; the results are listed from low to high. For survival time, this PubChem deposit counts one and a half times the control or more as active, and values a quarter to a half above the control carry no call in these data; other NCI protocols may use other cut-offs.

Test system: BDF1 mice, B16 melanoma ip, median survival T/C
Test: NCI In Vivo Anticancer Drug Screen. Data for tumor model B16 Melanoma (intraperitoneal) in B6D2F1 (BDF1) mice
Conditions: T/C endpoint: median survival time, higher T/C = longer survival
Summary of the method: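 Mice with transplantable tumors; drug vs vehicle groups; endpoint survival or tumor size; value = T/C.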

[1] = dose: 400.0 mg/kg/injection, schedule: Q01DX009 (ip), vehicle: saline with Tween-80
[2] = dose: 100.0 mg/kg/injection, schedule: Q01DX009 (ip), vehicle: Klucel (hydroxypropylcellulose) (HPC)
[3] = dose: 200.0 mg/kg/injection, schedule: Q01DX009 (ip), vehicle: Klucel (hydroxypropylcellulose) (HPC)
[4] = dose: 25.0 mg/kg/injection, schedule: Q01DX009 (ip), vehicle: saline with Tween-80
[5] = dose: 50.0 mg/kg/injection, schedule: Q01DX009 (ip), vehicle: saline with Tween-80
[6] = dose: 100.0 mg/kg/injection, schedule: Q01DX009 (ip), vehicle: saline with Tween-80
[7] = dose: 2.5 mg/kg/injection, schedule: Q01DX009 (ip), vehicle: Klucel (hydroxypropylcellulose) (HPC)
[8] = dose: 12.5 mg/kg/injection, schedule: Q01DX009 (ip), vehicle: saline
[9] = dose: 25.0 mg/kg/injection, schedule: Q01DX009 (ip), vehicle: saline
[10] = dose: 10.0 mg/kg/injection, schedule: Q01DX009 (ip), vehicle: Klucel (hydroxypropylcellulose) (HPC)
[11] = dose: 40.0 mg/kg/injection, schedule: Q01DX009 (ip), vehicle: Klucel (hydroxypropylcellulose) (HPC)

CN1C(=O)CN=C(c2ccccc2)c2cc(Cl)ccc21
survivor count (dose: 0.2 mg/kg/injection, schedule: Q01DX009 (ip), vehicle: saline): 10 of 10 | survivor count (dose: 0.78 mg/kg/injection, schedule: Q01DX009 (ip), vehicle: Klucel (hydroxypropylcellulose) (HPC)): 10 of 10 | survivor count (dose: 1.56 mg/kg/injection, schedule: Q01DX009 (ip), vehicle: Klucel (hydroxypropylcellulose) (HPC)): 9 of 10 | survivor count (dose: 3.12 mg/kg/injection, schedule: Q01DX009 (ip), vehicle: Klucel (hydroxypropylcellulose) (HPC)): 10 of 10 | survivor count (dose: 6.25 mg/kg/injection, schedule: Q01DX009 (ip), vehicle: Klucel (hydroxypropylcellulose) (HPC)): 10 of 10

O=S(=O)(Nc1ccc(-c2ccccc2)cc1)c1ccccc1
survivor count [1]: 9 of 10

[Cl][Pt+2][Cl].[NH-]C1CCCCC1.[NH-]C1CCCCC1
survivor count [2]: 10 of 10 | survivor count [3]: 10 of 10 | survivor count (dose: 400.0 mg/kg/injection, schedule: Q01DX009 (ip), vehicle: Klucel (hydroxypropylcellulose) (HPC)): 10 of 10

ClCCN(CCCl)CCCN1c2ccccc2Sc2ccccc21
T/C (dose: 12.5 mg/kg/injection, schedule: Q04DX003 (ip), vehicle: saline with Tween-80): 128 % of control | T/C (dose: 25.0 mg/kg/injection, schedule: Q04DX003 (ip), vehicle: saline with Tween-80): 125 % of control | survivor count (dose: 50.0 mg/kg/injection, schedule: Q04DX003 (ip), vehicle: saline with Tween-80): 9 of 10

Cc1cccc(/C=N\OCCc2ccccc2)n1
survivor count [1]: 10 of 10

C[CH2][Sn]([F])([CH2]C)[CH2]C
survivor count (dose: 6.0 mg/kg/injection, schedule: Q01DX009 (ip), vehicle: saline with Tween-80): 7 of 10

C[CH2][Sn]1([CH2]C)[O]OC(c2ccccc2)[O]1 (stereo not given)
T/C (dose: 0.78 mg/kg/injection, schedule: Q01DX009 (ip), vehicle: saline with Tween-80): 127 % of control | survivor count [4]: 0 of 10 and 5 of 10

Cc1cc(Cc2cc(C)c(C)c(C)c2C)c(C)c(C)c1C
survivor count (dose: 12.5 mg/kg/injection, schedule: Q01DX009 (ip), vehicle: saline with Tween-80): 10 of 10 | survivor count [4]: 10 of 10 | survivor count [5]: 10 of 10 | survivor count [6]: 9 of 10

CC(C)NC(=O)N(c1ccccc1)C(C)C
survivor count [3]: 5 of 10

CCC(C)C1NC(=O)C(NC(=O)c2c3nc4c(C(=O)NC5C(=O)NC(C(C)CC)C(=O)N6CCCC6C(=O)N(C)CC(=O)N(C)C(C(C)C)C(=O)OC5C)ccc(C)c4oc-3c(C)c(=O)c2Cl)C(C)OC(=O)C(C(C)C)N(C)C(=O)CN(C)C(=O)C2CCCN2C1=O (stereo not given)
T/C [7]: 137 % of control | T/C (dose: 5.0 mg/kg/injection, schedule: Q01DX009 (ip), vehicle: Klucel (hydroxypropylcellulose) (HPC)): 146 % of control

O=C(O)CCCSc1nc2ccccc2s1
survivor count [1]: 6 of 10

Cc1ccccc1OCC(O)CO (stereo not given)
survivor count [4]: 10 of 10

O=c1[nH]c(=O)n(C2OC(CO)C(O)C2O)cc1F (stereo not given)
survivor count (dose: 6.25 mg/kg/injection, schedule: Q01DX009 (ip), vehicle: saline): 10 of 10 | survivor count [8]: 10 of 10 | survivor count [9]: 10 of 10

O=C(OC1CCCCCCC1)C(F)(F)F
T/C [3]: 125 % of control

CCCCCCCC/C=C\CCCCCCCCN1CC(C(=O)[O][Pb]([CH2]C)([CH2]C)[CH2]C)CC1=O (stereo not given)
survivor count (dose: 12.0 mg/kg/injection, schedule: Q01DX009 (ip), vehicle: saline with Tween-80): 9 of 10

Cc1ccc(S(=O)(=O)N2CCC(O)(c3ccccc3)CC2)cc1
survivor count [10]: 10 of 10 | survivor count [11]: 10 of 10 | survivor count [2]: 10 of 10 | survivor count [3]: 10 of 10

[Cu+2].[NH-]CC(=O)O.[NH-]CC(=O)O
survivor count (dose: 20.0 mg/kg/injection, schedule: Q01DX009 (ip), vehicle: saline): 0 of 10

CCC[CH2][Sn]1([CH2]CCC)[O]C(=O)C[S]1
survivor count (dose: 4.0 mg/kg/injection, schedule: Q01DX009 (ip), vehicle: saline with Tween-80): 8 of 10

COc1cc2c(ccc3c4cc(OC)c(OC)cc4c[n+](C)c23)cc1O
survivor count [1]: 6 of 10

c1ccc2c(NCCCCCCCCNc3c4ccccc4nc4ccccc34)c3ccccc3nc2c1
T/C [7]: 129 and 146 % of control | T/C [10]: 139 % of control | survivor count (dose: 20.0 mg/kg/injection, schedule: Q01DX009 (ip), vehicle: Klucel (hydroxypropylcellulose) (HPC)): 10 of 10 | survivor count [11]: 8 of 10 and 10 of 10 | survivor count (dose: 80.0 mg/kg/injection, schedule: Q01DX009 (ip), vehicle: Klucel (hydroxypropylcellulose) (HPC)): 0 of 10 and 3 of 10

CS(=O)(=O)OCCN1CCC2(CC1)SSC1(CCN(CCOS(C)(=O)=O)CC1)S2
survivor count [8]: 10 of 10 | survivor count [9]: 1 of 10

CCOC(=O)c1c(N)sc2c1CCN(C)C2
survivor count (dose: 50.0 mg/kg/injection, schedule: Q01DX009 (ip), vehicle: Klucel (hydroxypropylcellulose) (HPC)): 10 of 10 | survivor count (dose: 80.0 mg/kg/injection, schedule: Q04DX003 (ip), vehicle: Klucel (hydroxypropylcellulose) (HPC)): 10 of 10

CC(Br)C(=O)NC(Cc1ccccc1)C(=O)O (stereo not given)
survivor count (dose: 200.0 mg/kg/injection, schedule: Q01DX009 (ip), vehicle: saline with Tween-80): 10 of 10

C[C@]12CC[C@H](OC(=O)Cc3ccc(N(CCCl)CCCl)cc3)CC1=CC[C@@H]1[C@@H]2CC[C@]2(C)C(=O)CC[C@@H]12
survivor count [1]: 10 of 10

Cc1nc2ccc(CCN3CCN(c4ccccc4Cl)CC3)cc2[nH]1
survivor count (dose: 16.5 mg/kg/injection, schedule: Q01DX009 (ip), vehicle: saline): 9 of 10 | survivor count (dose: 33.0 mg/kg/injection, schedule: Q01DX009 (ip), vehicle: saline): 9 of 10 | survivor count (dose: 66.0 mg/kg/injection, schedule: Q01DX009 (ip), vehicle: saline): 0 of 10

CCC(=O)c1ccc2c(c1)N(CCCN1CCN(CCO)CC1)c1ccccc1S2
survivor count (dose: 0.12 mg/kg/injection, schedule: Q01DX009 (ip), vehicle: saline): 9 of 10 | survivor count (dose: 8.0 mg/kg/injection, schedule: Q01DX009 (ip), vehicle: saline): 4 of 10 | survivor count (dose: 16.0 mg/kg/injection, schedule: Q01DX009 (ip), vehicle: saline): 5 of 10 | survivor count (dose: 32.0 mg/kg/injection, schedule: Q01DX009 (ip), vehicle: saline): 4 of 10 | survivor count (dose: 64.0 mg/kg/injection, schedule: Q01DX009 (ip), vehicle: saline): 0 of 10

[Cu+2].[NH-]C(CC(=O)O)C(=O)O.[NH-]C(CC(=O)O)C(=O)O (stereo not given)
survivor count (dose: 18.75 mg/kg/injection, schedule: Q01DX009 (ip), vehicle: saline): 10 of 10 | survivor count (dose: 37.5 mg/kg/injection, schedule: Q01DX009 (ip), vehicle: saline): 3 of 10 | survivor count (dose: 75.0 mg/kg/injection, schedule: Q01DX009 (ip), vehicle: saline): 0 of 10 | survivor count (dose: 150.0 mg/kg/injection, schedule: Q01DX009 (ip), vehicle: saline): 0 of 10

CC(=O)NNC(=O)c1ccccn1
survivor count [5]: 6 of 6 | survivor count [6]: 6 of 6 | survivor count (dose: 150.0 mg/kg/injection, schedule: Q01DX009 (ip), vehicle: water): 3 of 6 and 5 of 6 | survivor count (dose: 200.0 mg/kg/injection, schedule: Q01DX009 (ip), vehicle: water): 3 of 6

c1ccc(C2=C([P+](c3ccccc3)(c3ccccc3)c3ccccc3)CCO2)cc1
T/C (dose: 1.5 mg/kg/injection, schedule: Q01DX009 (ip), vehicle: saline): 133 % of control | T/C (dose: 3.0 mg/kg/injection, schedule: Q01DX009 (ip), vehicle: saline): 138 % of control | survivor count [8]: 9 of 10 | survivor count [9]: 1 of 10

COc1cccc2c1C(=O)c1c(O)c3c(c(O)c1C2=O)CC(O)(C(C)=O)CC3O (stereo not given)
survivor count (dose: 0.25 mg/kg/injection, schedule: Q01DX009 (ip), vehicle: saline): 10 of 10 | survivor count (dose: 8.0 mg/kg/injection, schedule: Q04DX003 (ip), vehicle: saline): 8 of 10
